Drawing on PMC8546558, this text covers binding for three substances.

In experiment [1] the target is T1, NisTHis (NisT C-terminally labeled by a 6×His tag) (Lactococcus lactis) (UniProt Q03203).
T1 sequence: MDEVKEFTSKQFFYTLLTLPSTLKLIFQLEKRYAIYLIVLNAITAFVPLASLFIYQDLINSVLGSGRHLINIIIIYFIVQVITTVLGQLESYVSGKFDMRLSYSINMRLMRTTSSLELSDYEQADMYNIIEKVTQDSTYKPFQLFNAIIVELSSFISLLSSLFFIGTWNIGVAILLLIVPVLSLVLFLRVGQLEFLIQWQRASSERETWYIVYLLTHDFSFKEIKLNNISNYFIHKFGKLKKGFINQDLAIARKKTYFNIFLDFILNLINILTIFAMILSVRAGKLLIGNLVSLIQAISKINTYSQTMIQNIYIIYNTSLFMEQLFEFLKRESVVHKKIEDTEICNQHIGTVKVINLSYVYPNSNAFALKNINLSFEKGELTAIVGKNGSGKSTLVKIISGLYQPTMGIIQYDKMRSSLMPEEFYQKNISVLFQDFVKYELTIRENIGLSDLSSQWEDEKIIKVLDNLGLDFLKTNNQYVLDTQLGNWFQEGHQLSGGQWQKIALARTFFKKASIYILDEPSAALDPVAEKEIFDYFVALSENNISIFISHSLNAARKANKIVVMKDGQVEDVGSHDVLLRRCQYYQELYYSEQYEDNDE
The experiment can be described thus: pull-down; NisTHis held on Ni-NTA agarose from DDM-solubilised membrane; expression combinations: NisB_(flag) and NisC without NisA, NisB_(flag) alone, NisC alone; SDS-PAGE and Western blotting. Background: In western blotting, separated proteins are transferred to a membrane and probed.

Experiment [2] concerns the target T2, NisCHis (6×His-tagged NisC) (Lactococcus lactis) (UniProt Q03202).
T2 sequence: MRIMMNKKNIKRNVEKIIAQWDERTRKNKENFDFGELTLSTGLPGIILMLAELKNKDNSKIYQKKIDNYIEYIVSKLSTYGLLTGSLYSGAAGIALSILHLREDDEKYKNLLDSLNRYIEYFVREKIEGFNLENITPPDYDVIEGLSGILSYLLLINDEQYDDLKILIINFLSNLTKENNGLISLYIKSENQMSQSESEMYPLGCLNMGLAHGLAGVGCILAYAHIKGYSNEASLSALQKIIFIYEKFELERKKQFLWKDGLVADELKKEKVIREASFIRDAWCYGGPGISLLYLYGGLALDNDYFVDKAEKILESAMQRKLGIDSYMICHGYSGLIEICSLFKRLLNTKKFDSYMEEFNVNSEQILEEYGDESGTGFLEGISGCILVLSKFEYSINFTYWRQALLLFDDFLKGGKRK
The experiment can be described thus: pull-down; NisCHis held on Ni-NTA agarose from the cell lysate of L. lactis NZ9000 coexpressing NisB_(flag), NisB^G_(flag) or NisB^E_(flag), without NisA; SDS-PAGE and Western blotting with anti-Flag.

Experiment [3] has as its target T1, NisTHis (NisT C-terminally labeled by a 6×His tag) (Lactococcus lactis). The experiment can be described thus: pull-down; NisTHis or NisT^H551AHis held on Ni-NTA agarose from DDM-solubilised cytoplasmic membrane of L. lactis NZ9000 coexpressing NisA, NisB_(flag) and NisC; 50 mM Tris-HCl, 300 mM NaCl, 0.1% DDM, pH 7.4, 4°C; elutions blotted with anti-Flag and anti-NisC.

Experiment [4] has the same target. The experiment can be described thus: pull-down; NisTHis held on Ni-NTA agarose, coexpressed with NisB^G_(flag) or NisB^E_(flag) in L. lactis NZ9000; the legend says purified from the cell lysate; Western blotting with anti-His and anti-Flag.

No constants are given. Whether binding was seen depends on the method and setting. In cells and extracts the contact can be indirect. Binding calls can cover weak binding; strength is not graded here. Sequences can lack the tags named with a protein.

Consider “NisB^C, the C-terminal product of degraded NisB (Lactococcus lactis) (domain or fragment)”, for which the binding result in experiment [1], in experiment [2] and in experiment [3] was “binds” in each case.

As to “NisB^E_(flag), the elimination domain of NisB (Lactococcus lactis) (domain or fragment)”, the binding entry in experiment [2] and in experiment [4] was “binds” throughout.

For the substance “NisB^G_(flag), the glutamylation domain of NisB (Lactococcus lactis) (domain or fragment)”, the binding entry in experiment [2] and in experiment [4] was “binds” throughout.
